PubChem BioAssay AID1224830 – NIAID, 2016
Assay: 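Genes whose knock-down alters the TNF-alpha reporter response to LPS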 (primary screen). Cell system: human THP-1 monocytic leukaemia cells, TNF dual-luciferase reporter clone, PMA-differentiated to macrophage-like cells. Reagents: siRNA pool against human genes, 50 nM. Timing: LPS for 4 h, given about 3 days after siRNA transfection. Challenge: bacterial LPS (TLR4 ligand), 10 ng/ml. Measurement: 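TNF firefly reporter luminescence divided by renilla, normalised to the plate median, then turned into a robust z-score for each replicate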. Direction: TNF reporter robust z-score: higher = stronger TNF reporter response to LPS. Hit rule: 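a well is active when its z-score exceeds 2.8 or falls below -1.5; control wells carry no call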.
In all, the deposit lists about 18,000 reagents; below is a part drawn at random. Over the whole deposit, about 2,900 (16%) got an active call. 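Calls are made per well; low scores hint the gene aids the LPS response, high scores that it dampens it.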 Repeated entries: four replicate wells of each siRNA pool.

| target | TNF reporter robust z-score | call |
| --- | --- | --- |
| QPRT | 1.26 | inactive |
| QPRT | 0.86 | inactive |
| QPRT | 1.06 | inactive |
| QPRT | 2.12 | inactive |
| GPR156 | 0.34 | inactive |
| GPR156 | 1.49 | inactive |
| GPR156 | 1.42 | inactive |
| GPR156 | 2.89 | active |
| GTPBP8 | 0.2 | inactive |
| GTPBP8 | 0.38 | inactive |
| GTPBP8 | 0.1 | inactive |
| GTPBP8 | 0.61 | inactive |
| MAGEB6 | -0.89 | inactive |
| MAGEB6 | 0.11 | inactive |
| MAGEB6 | -0.81 | inactive |
| MAGEB6 | -0.47 | inactive |
| TSPAN33 | -0.06 | inactive |
| TSPAN33 | -1.19 | inactive |
| TSPAN33 | -0.56 | inactive |
| TSPAN33 | 0.72 | inactive |
| VPS35 | 0.33 | inactive |
| VPS35 | -1.18 | inactive |
| VPS35 | -0.89 | inactive |
| VPS35 | -0.24 | inactive |
| RCOR2 | -0.49 | inactive |
| RCOR2 | -1.41 | inactive |
| RCOR2 | -0.67 | inactive |
| RCOR2 | 0.11 | inactive |
| CCDC159 | -0.71 | inactive |
| CCDC159 | -0.01 | inactive |
| CCDC159 | -0.21 | inactive |
| CCDC159 | 0.14 | inactive |
| CFAP221 | -0.35 | inactive |
| CFAP221 | -0.51 | inactive |
| CFAP221 | -0.19 | inactive |
| CFAP221 | -0.34 | inactive |
| UBE2NL | 0.15 | inactive |
| UBE2NL | 0.51 | inactive |
| UBE2NL | 1.47 | inactive |
| UBE2NL | 1 | inactive |
| FJX1 | 0.49 | inactive |
| FJX1 | 2.94 | active |
| FJX1 | 1.1 | inactive |
| FJX1 | 0.5 | inactive |
| TOMM70 | -0.56 | inactive |
| TOMM70 | 0.22 | inactive |
| TOMM70 | 0.35 | inactive |
| TOMM70 | 1.22 | inactive |
| KIAA0930 | -0.97 | inactive |
| KIAA0930 | -0.87 | inactive |
| KIAA0930 | -0.63 | inactive |
| KIAA0930 | -1.65 | active |
| EFL1 | -0.03 | inactive |
| EFL1 | -0.49 | inactive |
| EFL1 | 4.62 | active |
| EFL1 | -0.3 | inactive |
| IRX6 | -0.71 | inactive |
| IRX6 | -0.69 | inactive |
| IRX6 | -1.05 | inactive |
| IRX6 | -0.96 | inactive |
| KCNV1 | -0.44 | inactive |
| KCNV1 | -0.9 | inactive |
| KCNV1 | -1.34 | inactive |
| KCNV1 | -0.82 | inactive |
| GPATCH8 | -0.28 | inactive |
| GPATCH8 | -0.47 | inactive |
| GPATCH8 | -0.77 | inactive |
| GPATCH8 | 1.53 | inactive |
| H1-0 | -0.02 | inactive |
| H1-0 | -0.24 | inactive |
| H1-0 | 0.57 | inactive |
| H1-0 | -1.36 | inactive |
| PACSIN3 | -1.13 | inactive |
| PACSIN3 | -0.54 | inactive |
| PACSIN3 | -0.58 | inactive |
| PACSIN3 | -0.45 | inactive |
| NXN | 0.89 | inactive |
| NXN | 1.68 | inactive |
| NXN | 0.92 | inactive |
| NXN | 1.53 | inactive |
| CTNNB1 | -0.44 | inactive |
| CTNNB1 | 0.02 | inactive |
| CTNNB1 | -0.36 | inactive |
| CTNNB1 | 0.67 | inactive |
| SPINK5 | 3.18 | active |
| SPINK5 | 4.19 | active |
| SPINK5 | 3.12 | active |
| SPINK5 | 2.77 | inactive |
| CT45A1 | 1.2 | inactive |
| CT45A1 | 0.98 | inactive |
| CT45A1 | 1.02 | inactive |
| CT45A1 | 0.87 | inactive |
| MAGT1 | 0.83 | inactive |
| MAGT1 | 1.8 | inactive |
| MAGT1 | 0.59 | inactive |
| MAGT1 | 0.15 | inactive |
| SEMA4C | -0.47 | inactive |
| SEMA4C | 1.21 | inactive |
| SEMA4C | 0.47 | inactive |
| SEMA4C | -0.21 | inactive |
| PRDM2 | -0.61 | inactive |
| PRDM2 | 0.7 | inactive |
| PRDM2 | 0.36 | inactive |
| PRDM2 | -0.13 | inactive |
| CFAP69 | 1.37 | inactive |
| CFAP69 | 0.07 | inactive |
| CFAP69 | 0.11 | inactive |
| CFAP69 | 0.88 | inactive |
| DLD | -0.09 | inactive |
| DLD | 0.11 | inactive |
| DLD | -1.52 | active |
| DLD | -1.64 | active |
| VSIG2 | 0.4 | inactive |
| VSIG2 | -0.63 | inactive |
| VSIG2 | 0.39 | inactive |
| VSIG2 | 0.66 | inactive |
| SPPL2B | -1.63 | active |
| SPPL2B | -0.7 | inactive |
| SPPL2B | 0.4 | inactive |
| SPPL2B | 1.26 | inactive |
| MRPL57 | -0.38 | inactive |
| MRPL57 | -0.04 | inactive |
| MRPL57 | 0.23 | inactive |
| MRPL57 | 0.25 | inactive |
| CDC50A | 0.03 | inactive |
| CDC50A | -0.36 | inactive |
| CDC50A | 0.09 | inactive |
| CDC50A | 0.19 | inactive |
| XRN2 | -0.27 | inactive |
| XRN2 | 0.13 | inactive |
| XRN2 | 0.23 | inactive |
| XRN2 | -0.75 | inactive |
| NLRC3 | -0.57 | inactive |
| NLRC3 | -0.06 | inactive |
| NLRC3 | -0.6 | inactive |
| NLRC3 | -0.55 | inactive |
| KLC2 | -0.85 | inactive |
| KLC2 | -1.84 | active |
| KLC2 | 0.06 | inactive |
| KLC2 | -0.18 | inactive |

21 successive reagents already listed:
| target | TNF reporter robust z-score | call |
| --- | --- | --- |
| SEMA4C | 1.21 | inactive |
| SEMA4C | 0.47 | inactive |
| SEMA4C | -0.21 | inactive |
| PRDM2 | -0.61 | inactive |
| PRDM2 | 0.7 | inactive |
| PRDM2 | 0.36 | inactive |
| PRDM2 | -0.13 | inactive |
| CFAP69 | 1.37 | inactive |
| CFAP69 | 0.07 | inactive |
| CFAP69 | 0.11 | inactive |
| CFAP69 | 0.88 | inactive |
| DLD | -0.09 | inactive |
| DLD | 0.11 | inactive |
| DLD | -1.52 | active |
| DLD | -1.64 | active |
| VSIG2 | 0.4 | inactive |
| VSIG2 | -0.63 | inactive |
| VSIG2 | 0.39 | inactive |
| VSIG2 | 0.66 | inactive |
| SPPL2B | -1.63 | active |
| SPPL2B | -0.7 | inactive |
